# Data reported in the supplement of paper PMC11006884.
# Protein sequences, listed by entry. Tags and fused reporters are not part of them. Lines headed by an entry give the natural chain unless they say otherwise; changes in a name come on top.
# UniProt Q9H0C8: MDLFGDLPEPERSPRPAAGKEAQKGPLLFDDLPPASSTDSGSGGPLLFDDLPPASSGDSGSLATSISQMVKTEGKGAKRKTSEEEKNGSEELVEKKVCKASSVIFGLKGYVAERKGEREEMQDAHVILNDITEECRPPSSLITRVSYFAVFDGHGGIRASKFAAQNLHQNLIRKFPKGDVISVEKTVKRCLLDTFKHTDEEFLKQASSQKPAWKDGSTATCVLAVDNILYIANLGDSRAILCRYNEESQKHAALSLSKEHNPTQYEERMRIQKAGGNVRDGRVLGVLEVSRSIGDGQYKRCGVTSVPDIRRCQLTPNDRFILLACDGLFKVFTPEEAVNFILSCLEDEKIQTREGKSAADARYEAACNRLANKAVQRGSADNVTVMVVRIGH
# UniProt Q9BTE3: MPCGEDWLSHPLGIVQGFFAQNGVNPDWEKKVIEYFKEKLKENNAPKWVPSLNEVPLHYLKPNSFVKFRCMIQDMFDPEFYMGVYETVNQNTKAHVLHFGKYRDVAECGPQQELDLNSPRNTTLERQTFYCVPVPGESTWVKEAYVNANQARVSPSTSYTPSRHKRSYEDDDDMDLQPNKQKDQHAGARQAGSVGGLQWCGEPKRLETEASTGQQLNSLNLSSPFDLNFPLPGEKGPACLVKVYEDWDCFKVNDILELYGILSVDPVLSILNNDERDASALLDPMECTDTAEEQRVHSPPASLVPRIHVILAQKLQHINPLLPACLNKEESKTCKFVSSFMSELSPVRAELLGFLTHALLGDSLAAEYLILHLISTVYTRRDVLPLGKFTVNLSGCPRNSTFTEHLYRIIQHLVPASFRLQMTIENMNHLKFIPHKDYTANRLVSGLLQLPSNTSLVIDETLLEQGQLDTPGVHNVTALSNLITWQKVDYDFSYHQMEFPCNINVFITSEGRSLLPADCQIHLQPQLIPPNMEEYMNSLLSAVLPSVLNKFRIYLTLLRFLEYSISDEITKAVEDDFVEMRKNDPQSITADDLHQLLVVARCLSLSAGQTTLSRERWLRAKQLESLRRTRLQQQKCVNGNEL
# UniProt Q9C0C9: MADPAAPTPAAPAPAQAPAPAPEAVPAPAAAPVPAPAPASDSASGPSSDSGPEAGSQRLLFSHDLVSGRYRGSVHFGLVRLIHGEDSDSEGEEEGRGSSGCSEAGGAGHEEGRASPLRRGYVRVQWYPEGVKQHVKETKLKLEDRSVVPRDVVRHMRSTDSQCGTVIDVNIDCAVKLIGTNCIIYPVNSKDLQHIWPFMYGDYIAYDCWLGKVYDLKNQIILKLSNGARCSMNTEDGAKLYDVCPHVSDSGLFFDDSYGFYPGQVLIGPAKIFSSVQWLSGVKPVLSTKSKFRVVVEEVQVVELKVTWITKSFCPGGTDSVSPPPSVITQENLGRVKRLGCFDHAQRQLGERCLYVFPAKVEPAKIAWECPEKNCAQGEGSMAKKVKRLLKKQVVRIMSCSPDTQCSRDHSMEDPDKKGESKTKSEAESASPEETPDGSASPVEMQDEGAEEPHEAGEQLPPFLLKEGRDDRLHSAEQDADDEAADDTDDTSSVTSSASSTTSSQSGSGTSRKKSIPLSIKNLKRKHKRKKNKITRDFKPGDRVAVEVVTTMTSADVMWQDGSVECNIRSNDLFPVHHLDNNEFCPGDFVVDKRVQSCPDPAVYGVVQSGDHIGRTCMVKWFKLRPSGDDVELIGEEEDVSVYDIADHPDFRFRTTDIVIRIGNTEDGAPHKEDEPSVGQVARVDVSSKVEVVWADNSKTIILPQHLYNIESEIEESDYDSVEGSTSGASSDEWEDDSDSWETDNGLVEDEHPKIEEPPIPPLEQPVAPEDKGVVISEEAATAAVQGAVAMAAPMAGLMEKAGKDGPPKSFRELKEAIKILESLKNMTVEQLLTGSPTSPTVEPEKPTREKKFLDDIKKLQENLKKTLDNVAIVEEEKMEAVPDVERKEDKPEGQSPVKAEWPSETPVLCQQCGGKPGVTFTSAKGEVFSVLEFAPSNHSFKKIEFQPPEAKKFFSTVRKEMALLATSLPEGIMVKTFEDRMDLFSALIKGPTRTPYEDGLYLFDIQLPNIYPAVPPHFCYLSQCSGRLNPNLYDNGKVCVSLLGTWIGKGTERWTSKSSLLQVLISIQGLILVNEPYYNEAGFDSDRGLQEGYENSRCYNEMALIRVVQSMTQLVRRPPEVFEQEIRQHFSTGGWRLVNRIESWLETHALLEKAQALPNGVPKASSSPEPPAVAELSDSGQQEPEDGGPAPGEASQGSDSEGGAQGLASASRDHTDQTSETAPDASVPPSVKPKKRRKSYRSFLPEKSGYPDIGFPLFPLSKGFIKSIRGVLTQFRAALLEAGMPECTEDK
# UniProt Q9BVJ6: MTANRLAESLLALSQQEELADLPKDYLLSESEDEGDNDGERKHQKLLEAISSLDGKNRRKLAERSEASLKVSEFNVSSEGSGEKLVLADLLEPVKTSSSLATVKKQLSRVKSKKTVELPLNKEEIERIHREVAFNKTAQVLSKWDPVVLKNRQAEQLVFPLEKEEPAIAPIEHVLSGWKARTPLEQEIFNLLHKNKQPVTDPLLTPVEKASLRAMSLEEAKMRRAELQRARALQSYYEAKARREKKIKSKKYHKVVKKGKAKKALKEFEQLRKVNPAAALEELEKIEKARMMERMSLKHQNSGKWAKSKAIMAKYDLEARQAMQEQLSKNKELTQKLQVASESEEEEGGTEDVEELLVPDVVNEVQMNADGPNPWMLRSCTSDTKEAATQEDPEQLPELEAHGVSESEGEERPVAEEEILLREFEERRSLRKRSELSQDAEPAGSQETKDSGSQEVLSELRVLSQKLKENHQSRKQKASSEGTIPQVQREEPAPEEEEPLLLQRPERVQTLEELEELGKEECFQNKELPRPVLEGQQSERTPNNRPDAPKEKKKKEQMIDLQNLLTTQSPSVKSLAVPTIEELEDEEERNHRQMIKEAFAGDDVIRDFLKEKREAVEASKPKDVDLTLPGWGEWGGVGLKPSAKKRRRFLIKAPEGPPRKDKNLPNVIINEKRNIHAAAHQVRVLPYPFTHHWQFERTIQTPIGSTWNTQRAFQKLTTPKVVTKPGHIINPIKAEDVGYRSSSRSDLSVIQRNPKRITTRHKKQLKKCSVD
# UniProt Q9H0A0: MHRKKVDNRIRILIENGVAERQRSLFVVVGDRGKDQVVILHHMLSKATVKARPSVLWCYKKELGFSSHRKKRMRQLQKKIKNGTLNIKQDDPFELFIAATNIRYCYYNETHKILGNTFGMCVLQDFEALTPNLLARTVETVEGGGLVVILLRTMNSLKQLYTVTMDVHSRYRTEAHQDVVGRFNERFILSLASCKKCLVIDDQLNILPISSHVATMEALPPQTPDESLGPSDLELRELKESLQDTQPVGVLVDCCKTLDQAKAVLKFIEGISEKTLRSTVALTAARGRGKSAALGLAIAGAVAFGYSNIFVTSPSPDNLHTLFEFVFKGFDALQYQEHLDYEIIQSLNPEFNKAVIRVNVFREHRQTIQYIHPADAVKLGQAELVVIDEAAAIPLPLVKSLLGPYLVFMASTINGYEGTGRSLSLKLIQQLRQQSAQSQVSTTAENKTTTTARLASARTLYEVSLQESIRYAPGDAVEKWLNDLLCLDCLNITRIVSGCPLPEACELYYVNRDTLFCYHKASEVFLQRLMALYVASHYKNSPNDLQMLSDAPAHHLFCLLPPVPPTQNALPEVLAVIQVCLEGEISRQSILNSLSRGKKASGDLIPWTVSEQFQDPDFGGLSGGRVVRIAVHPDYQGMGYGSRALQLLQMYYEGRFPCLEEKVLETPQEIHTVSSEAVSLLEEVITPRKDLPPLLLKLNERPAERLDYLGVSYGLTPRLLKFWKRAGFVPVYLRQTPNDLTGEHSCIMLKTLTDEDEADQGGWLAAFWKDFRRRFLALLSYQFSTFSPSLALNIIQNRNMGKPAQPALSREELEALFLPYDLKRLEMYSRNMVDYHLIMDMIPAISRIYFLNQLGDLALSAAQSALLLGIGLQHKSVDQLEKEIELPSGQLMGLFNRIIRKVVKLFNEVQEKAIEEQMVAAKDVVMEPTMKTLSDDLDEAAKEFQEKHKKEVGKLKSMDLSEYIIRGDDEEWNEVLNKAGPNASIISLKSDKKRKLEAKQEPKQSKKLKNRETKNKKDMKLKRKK
# UniProt Q9BW92: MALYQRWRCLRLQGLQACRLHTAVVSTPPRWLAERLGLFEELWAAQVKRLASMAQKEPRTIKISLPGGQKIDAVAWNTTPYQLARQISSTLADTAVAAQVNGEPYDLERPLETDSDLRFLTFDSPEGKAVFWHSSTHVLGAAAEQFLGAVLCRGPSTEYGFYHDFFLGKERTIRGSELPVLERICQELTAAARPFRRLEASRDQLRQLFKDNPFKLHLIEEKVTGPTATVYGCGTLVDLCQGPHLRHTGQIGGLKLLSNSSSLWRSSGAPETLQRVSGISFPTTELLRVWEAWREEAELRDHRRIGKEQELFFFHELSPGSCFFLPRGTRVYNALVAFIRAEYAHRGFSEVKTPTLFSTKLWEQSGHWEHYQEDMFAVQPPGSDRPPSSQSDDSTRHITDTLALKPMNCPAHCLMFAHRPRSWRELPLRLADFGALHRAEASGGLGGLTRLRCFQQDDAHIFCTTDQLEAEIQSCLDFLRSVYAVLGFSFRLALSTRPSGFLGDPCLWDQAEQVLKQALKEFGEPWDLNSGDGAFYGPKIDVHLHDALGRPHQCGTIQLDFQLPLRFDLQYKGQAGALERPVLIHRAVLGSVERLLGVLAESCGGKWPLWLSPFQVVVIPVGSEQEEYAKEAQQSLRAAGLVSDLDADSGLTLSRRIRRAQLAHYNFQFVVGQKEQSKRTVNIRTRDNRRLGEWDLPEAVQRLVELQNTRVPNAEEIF
# UniProt Q9BY77: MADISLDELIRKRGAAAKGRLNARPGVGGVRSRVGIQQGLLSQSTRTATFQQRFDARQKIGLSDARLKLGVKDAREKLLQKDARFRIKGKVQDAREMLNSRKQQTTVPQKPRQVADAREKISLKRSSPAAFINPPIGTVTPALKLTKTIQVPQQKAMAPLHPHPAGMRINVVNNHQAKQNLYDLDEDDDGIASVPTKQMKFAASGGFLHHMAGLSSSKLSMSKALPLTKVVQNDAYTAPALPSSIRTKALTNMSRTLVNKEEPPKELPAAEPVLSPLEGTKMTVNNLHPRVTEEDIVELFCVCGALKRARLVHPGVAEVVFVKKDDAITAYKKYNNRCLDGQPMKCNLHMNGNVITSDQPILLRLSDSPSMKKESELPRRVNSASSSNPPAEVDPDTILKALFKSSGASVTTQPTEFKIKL
# UniProt Q9C0B0: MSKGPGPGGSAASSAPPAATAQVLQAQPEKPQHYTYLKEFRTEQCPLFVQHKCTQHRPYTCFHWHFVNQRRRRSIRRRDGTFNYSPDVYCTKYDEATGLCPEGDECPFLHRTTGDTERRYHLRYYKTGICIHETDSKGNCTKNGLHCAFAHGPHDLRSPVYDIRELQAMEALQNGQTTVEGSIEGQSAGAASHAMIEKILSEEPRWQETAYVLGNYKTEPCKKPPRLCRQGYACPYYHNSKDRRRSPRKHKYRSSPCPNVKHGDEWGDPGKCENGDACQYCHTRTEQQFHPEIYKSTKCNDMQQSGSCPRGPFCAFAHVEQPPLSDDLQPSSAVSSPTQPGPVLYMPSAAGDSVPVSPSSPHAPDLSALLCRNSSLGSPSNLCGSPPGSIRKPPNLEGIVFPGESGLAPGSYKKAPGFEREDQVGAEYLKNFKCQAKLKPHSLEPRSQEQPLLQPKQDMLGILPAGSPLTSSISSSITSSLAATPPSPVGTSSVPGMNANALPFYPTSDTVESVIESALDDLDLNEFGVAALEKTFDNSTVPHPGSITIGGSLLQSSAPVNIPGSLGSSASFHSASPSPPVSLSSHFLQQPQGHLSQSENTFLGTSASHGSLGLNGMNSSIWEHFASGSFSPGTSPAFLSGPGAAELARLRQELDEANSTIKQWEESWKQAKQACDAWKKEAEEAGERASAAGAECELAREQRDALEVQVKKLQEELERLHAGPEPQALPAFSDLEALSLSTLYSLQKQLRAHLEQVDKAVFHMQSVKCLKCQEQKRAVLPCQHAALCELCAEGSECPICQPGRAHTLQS
# UniProt Q9BRX2, whole entry, looked up: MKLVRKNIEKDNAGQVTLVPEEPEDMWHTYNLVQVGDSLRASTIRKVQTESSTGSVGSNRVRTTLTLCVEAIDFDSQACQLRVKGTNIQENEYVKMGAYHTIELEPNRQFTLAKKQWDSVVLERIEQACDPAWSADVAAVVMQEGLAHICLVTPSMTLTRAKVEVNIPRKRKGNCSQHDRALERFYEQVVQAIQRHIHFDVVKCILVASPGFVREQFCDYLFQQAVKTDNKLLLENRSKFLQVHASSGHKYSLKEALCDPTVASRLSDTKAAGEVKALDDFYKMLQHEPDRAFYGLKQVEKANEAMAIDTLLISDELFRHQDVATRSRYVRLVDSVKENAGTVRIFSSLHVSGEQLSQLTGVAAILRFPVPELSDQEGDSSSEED
# This is a selection; strong and weak results do not stand in their true shares.
# Compound: COC(=O)C#Cc1ccccc1 [methyl 3-phenylpropiolate]
# Assay: log2 ratio of iodoacetamide-alkyne labeling of the cysteine site, DMSO over compound (competition); higher = stronger covalent engagement of the cysteine by the compound, active = 1 or more
# Settings: 500 µM; treatment time 1 h; system: HEK293T cell lysate
# Method in brief: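 Three replicates, each with duplicate channels, were prepared from HEK293T lysate (2 mg/mL) treated with vehicle or electrophile at 500 µM for 1 h at ambient temperature. Iodoacetamide alkyne was then applied for 1 h, and samples were clicked to sCIP-TMT reagents, pooled, trypsin-digested overnight at 37 °C, enriched on streptavidin, acid-eluted and analysed on Orbitrap Eclipse LC-MS/MS with FAIMS, with FragPipe quantification. The log2 competition ratio per cysteine is the mean control-channel divided by the mean compound-channel reporter intensity. Cysteines quantified in only one replicate were left out.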
row,Target,log2 ratio of iodoacetamide-alkyne labeling
1,ILKAP C301 (UniProt Q9H0C8),inactive: 0.378
2,UniProt Q9BTE3_C3,inactive: 0.354
3,C2orf49 C10 (UniProt Q9BVC5),inactive: 0.299
4,GNB1L C116 (UniProt Q9BYB4),inactive: 0.259
5,UBE2O C598 (UniProt Q9C0C9),inactive: 0.166
6,UTP14A C380 (UniProt Q9BVJ6),inactive: 0.429
7,WDR18 C384 (UniProt Q9BV38),inactive: 0.328
8,UniProt Q9BTE3_C200,inactive: 0.528
9,ASPSCR1 C174 (UniProt Q9BZE9),inactive: 0.164
10,PRKD2 C217 (UniProt Q9BZL6),inactive: 0.461
11,UniProt Q9BTT6_C22,inactive: 0.382
12,SCAPER C1301 (UniProt Q9BY12),inactive: 0.305
13,SLK C1212 (UniProt Q9H2G2),inactive: 0.366
14,UniProt Q9BTE3_C108,inactive: 0.16
15,TRIOBP C2233 (UniProt Q9H2D6),inactive: 0.271
16,NAT10 C489 (UniProt Q9H0A0),inactive: 0.0616
17,TARS2 C185 (UniProt Q9BW92),inactive: 0.0276
18,UBE2O C406 (UniProt Q9C0C9),active: 1.46
19,UniProt Q9C0E8_C149,inactive: 0.125

row,Target,log2 ratio of iodoacetamide-alkyne labeling
1,ANP32E C87 (UniProt Q9BTT0),inactive: 0.147
2,POLDIP3 C338 (UniProt Q9BY77),inactive: 0.292
3,UBE2O C400 (UniProt Q9C0C9),inactive: -0.416
4,NAT10 C658 (UniProt Q9H0A0),inactive: -0.0642
5,SRSF8 C3 (UniProt Q9BRL6),inactive: 0.472
6,UniProt Q9BVL2_C252,inactive: -0.134
7,UniProt Q9BXJ9_C322,inactive: -0.0777
8,RAB11FIP5 C337 (UniProt Q9BXF6),inactive: 0.653
9,HNRNPUL1 C421 (UniProt Q9BUJ2),inactive: 0.182
10,ACTR6 C339 (UniProt Q9GZN1),inactive: 0.248
11,KIFC1 C212 (UniProt Q9BW19),inactive: 0.282
12,UNK C383 (UniProt Q9C0B0),inactive: 0.721
13,PELO C204 (UniProt Q9BRX2),inactive: -0.0708
14,UNC93B1 C583 (UniProt Q9H1C4),active: 2.06
15,HNRNPUL1 C391 (UniProt Q9BUJ2),inactive: 0.248
16,UniProt Q9BQI3_C494,inactive: 0.117
17,UBE2O C585 (UniProt Q9C0C9),inactive: 0.0628
18,HERPUD2 C28 (UniProt Q9BSE4),inactive: 0.331

# Two entries drawn at random from those above, as already listed:
row,Target,log2 ratio of iodoacetamide-alkyne labeling
11,UniProt Q9BTT6_C22,inactive: 0.382
2,POLDIP3 C338 (UniProt Q9BY77),inactive: 0.292
